Data from paper PMC4742189.
These are yes or no findings as the source states them, for the method shown. Binding seen in cells or lysates may run through a third protein. Some binding calls cover weakened binding; strength is not graded here.

Target: myeloid cell leukemia 1 (Mcl-1) (human (endogenous in SF188)), Q07820
Test: co-IP; Dynabeads Co-Immunoprecipitation Kit; magnetic beads conjugated with monoclonal mouse anti-Mcl-1 (clone 22) or non-specific mouse IgG; whole-cell extracts of SF188 cells treated 6 h with ABT263, TIC10/ONC201, both or solvent under serum starvation; lysates incubated 30 min at 4°C; immunoblot for Mcl-1, Noxa and BIM
Conditions: remark: other sources report otherwise

- binding: binds
B1: Noxa, Q13794 1-54 (protein)
chain: MPGKKARKNAQPSPARAPAELEVECATQLRRFGDKLNFRQKLLNLISKLFCSGT
